Reference: PMC4819448, “Co-operative and Hierarchical Binding of c-FLIP and Caspase-8: A Unified Model Defines How c-FLIP Isoforms Differentially Control Cell Fate” (Molecular Cell, 2016)

The chains behind the UniProt entries cited, without tags or fusion partners. Where a name states a change or a piece, a line headed by the entry shows the natural chain unless it says otherwise.
UniProt O00220: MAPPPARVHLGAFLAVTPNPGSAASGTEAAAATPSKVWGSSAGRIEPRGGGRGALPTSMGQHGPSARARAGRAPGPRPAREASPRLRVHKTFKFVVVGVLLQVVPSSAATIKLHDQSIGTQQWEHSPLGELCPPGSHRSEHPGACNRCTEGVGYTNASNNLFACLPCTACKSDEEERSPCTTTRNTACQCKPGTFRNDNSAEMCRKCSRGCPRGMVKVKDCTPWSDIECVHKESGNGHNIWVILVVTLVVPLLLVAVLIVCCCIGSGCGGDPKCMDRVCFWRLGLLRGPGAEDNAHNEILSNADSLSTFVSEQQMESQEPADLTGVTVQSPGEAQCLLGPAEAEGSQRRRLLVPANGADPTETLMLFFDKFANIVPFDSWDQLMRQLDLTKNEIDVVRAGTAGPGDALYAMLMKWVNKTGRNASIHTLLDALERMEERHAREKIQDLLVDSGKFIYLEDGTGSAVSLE
UniProt O14763: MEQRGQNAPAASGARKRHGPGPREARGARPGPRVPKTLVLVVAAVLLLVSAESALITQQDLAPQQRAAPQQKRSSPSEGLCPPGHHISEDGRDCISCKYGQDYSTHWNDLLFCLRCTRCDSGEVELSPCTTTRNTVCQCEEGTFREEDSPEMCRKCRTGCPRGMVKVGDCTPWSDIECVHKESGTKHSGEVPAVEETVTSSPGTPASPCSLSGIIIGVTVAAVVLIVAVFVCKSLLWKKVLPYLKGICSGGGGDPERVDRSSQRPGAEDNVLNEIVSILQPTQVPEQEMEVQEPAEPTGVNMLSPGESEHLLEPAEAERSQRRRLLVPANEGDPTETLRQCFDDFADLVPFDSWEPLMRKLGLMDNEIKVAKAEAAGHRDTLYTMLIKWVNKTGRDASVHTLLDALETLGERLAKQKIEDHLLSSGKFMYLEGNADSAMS
UniProt Q13158: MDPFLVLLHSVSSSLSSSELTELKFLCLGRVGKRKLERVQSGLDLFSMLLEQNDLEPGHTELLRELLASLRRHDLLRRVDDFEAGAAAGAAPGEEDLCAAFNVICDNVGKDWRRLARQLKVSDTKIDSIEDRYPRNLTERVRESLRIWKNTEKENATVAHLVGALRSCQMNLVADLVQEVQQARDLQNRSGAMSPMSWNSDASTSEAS

Assays:
[1] = biological target: GST-tagged TRAIL-R1 intracellular domain (UniProt O00220); test: pull-down; TRAIL-R1-IcD pull downs from caspase-8 null Jurkat lysates, no exogenous procaspase-8; only the target purified
[2] = biological target: GST-tagged TRAIL-R1 intracellular domain (UniProt O00220); test: pull-down; reconstituted DISC: beads coated with purified GST-receptor-IcD (10 ug) incubated with r-FADD (5 ug) and IVT 35S procaspase-8b, 16 hr at 20 C; bead-associated FADD by SDS-PAGE/western blotting; both purified
[3] = biological target: GST-tagged TRAIL-R2 intracellular domain (UniProt O14763); test: as above

binding [1]	binding [2]	binding [3]	Substance
binds			endogenous FADD (from UniProt Q13158 1-208)
	binds	binds	full-length recombinant FADD (from UniProt Q13158 1-208)

Results are given in words; binding and its absence hold for the method and conditions named. A result given as binding can be weak or reduced; the word gives no strength. For part of these data: Binding seen in cells or lysates may run through a third protein.
